# “And” between values parts separate entries of the source, which are not always exact repeats. Equal entries are not always repeated. This continues a long series; more values of the same kind are listed elsewhere.
# Chains of the proteins cited; added tags and fusions are not shown. Residues count along the entry.
# UniProt O14508, 32-198: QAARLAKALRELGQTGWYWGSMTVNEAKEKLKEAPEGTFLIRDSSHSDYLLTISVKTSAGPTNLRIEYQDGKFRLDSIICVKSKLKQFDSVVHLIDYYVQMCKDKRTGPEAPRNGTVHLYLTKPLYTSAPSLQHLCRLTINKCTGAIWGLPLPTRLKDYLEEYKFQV
# Biological target: T1, SBC2 (Homo sapiens, UniProt O14508)
# T1 construct: SOCS2 (amino acids 32–198); His6 (N, cleaved yes); made in house; host or cells: E. coli BL21(DE3)
# Experiment: Covalent fluorescence polarization (FP) probe displacement assay
# Format: binding
# Excerpt: With the specific covalent modification of Cys111 established, we decided to fully characterize MN551 as a covalent SOCS2 inhibitor. […] (Fig. 2g, h, Supplementary Fig. 9). Due to the covalent nature of the competing inhibitor, a time-dependent reduction in the fraction of protein-bound probe is observed. […] This value illustrates reasonable specificity for a covalent inhibitor, with nonetheless scope for future optimization. In addition to characterizing the kinetic covalency parameters, we have also assessed the stability of the MN551 by monitoring its reactivity (half-life >70 min) with reduced glutathione (GSH) (Supplementary Fig. 10)[35].
# To monitor the SBC2-ligand binding kinetics we designed a fluorescein-labeled small-molecule probe - compound 26. The fluorescence polarization (anisotropy) of a threefold serial dilution of 50 µM SBC2 in 10 nM of the probe in 100 mM HEPES pH 7.5, 50 mM NaCl, 0.5 mM TCEP, 2% DMSO was measured to determine the KL (Supplementary Fig. 9A) (BMG Labtech PHERAstar – firmware v1.33). Protein titration and the curves were fitted using GraphPad Prism 9, using one-site fitting models to determine the probe binding constant, KL. Samples were run in triplicate in 384 well plates, using a total volume per well of 16 μL. The bound fraction of the probe is measure using the equation:1 Fb=Af−A/Af−Ab Where,
# A time-dependent reduction in probe anisotropy were measured for a 2-fold serial dilution of […] compound MN551 in 10 nM probe +300 μM SBC2. To determine the initial reversible binding affinity, the initial bound fraction of the probe at time = 0, Fbo (the y-intercept in Fb v/s Time plot, Supplementary Fig. 9B) was plotted against MN551 concentration, and the obtained IC50 is then converted to Ki (Supplementary Fig. 9C)[17]. The slope from Fb versus time graph when divided by Fbo gives rate of covalency, kobs. A plot of kobs v/s MN551 concentration using Michaelis–Menten model of GraphPad Prism 9, provides the parameters kinact (maximum potential rate of inactivation) and KI (concentration of MN551 at which kobs = kinact/2) (Supplementary Fig. 9D, E).
# The observed first-order rate constant, kobs is related to KI and kinact by the equation:2 kobs=kinactI/KI+I
# At [I]«[KI] the above equation is converted to3 […]
# The slope from the plot of kobs against concentration of MN551 gives us the covalent efficiency parameter kinact/KI (Supp Fig. 9F)[30],[33].
# [1] = MN551 67.7604 nM, Cycle 17 (80 min), n=1
# [2] = MN551 67.7604 nM, Cycle 18 (85 min), n=1
# [3] = MN551 67.7604 nM; Cycle 6 (25 min)
# [4] = MN551 67.7604 nM; Cycle 7 (30 min)
# [5] = MN551 67.7604 nM; Cycle 8 (35 min)
# [6] = MN551 67.7604 nM; Cycle 9 (40 min)
# [7] = MN551 67.7604 nM; Cycle 10 (45 min)
# [8] = MN551 67.7604 nM; Cycle 11 (50 min)
# [9] = MN551 67.7604 nM; Cycle 12 (55 min); n=1
# [10] = MN551 67.7604 nM; Cycle 13 (60 min); n=1
# [11] = MN551 67.7604 nM; Cycle 14 (65 min); n=1
# [12] = MN551 67.7604 nM; Cycle 15 (70 min); n=1
# [13] = MN551 67.7604 nM; Cycle 16 (75 min); n=1
# [14] = MN551 94.8645 nM, Cycle 8 (35 min)
# [15] = MN551 94.8645 nM, Cycle 9 (40 min)
# [16] = MN551 94.8645 nM, Cycle 10 (45 min)
# [17] = MN551 94.8645 nM, Cycle 11 (50 min)
# [18] = MN551 94.8645 nM, Cycle 15 (70 min), n=1
# [19] = MN551 94.8645 nM, Cycle 16 (75 min), n=1
# [20] = MN551 94.8645 nM, Cycle 17 (80 min), n=1
# [21] = MN551 94.8645 nM, Cycle 18 (85 min), n=1
# [22] = MN551 94.8645 nM; Cycle 6 (25 min)
# [23] = MN551 94.8645 nM; Cycle 7 (30 min)
# [24] = MN551 94.8645 nM; Cycle 8 (35 min)
# [25] = MN551 94.8645 nM; Cycle 9 (40 min)
# [26] = MN551 94.8645 nM; Cycle 10 (45 min)
# [27] = MN551 94.8645 nM; Cycle 11 (50 min)
# [28] = MN551 94.8645 nM; Cycle 12 (55 min); n=1
# [29] = MN551 94.8645 nM; Cycle 13 (60 min); n=1
structure (smiles),measurement,setting,value
O=C(CCl)Nc1cccc(CNC(=O)[C@H](Cc2ccc(OP(=O)(O)O)cc2)NC(=O)Cc2ccc(F)cc2)c1 [MN551],"Normalised anisotropy (0 nM MN551 = 1, free probe = 0)","MN551 67.7604 nM, Cycle 16 (75 min), n=1",1.011 and 0.9971 and 0.9751
same,Anisotropy,[1],273.9 and 272.9 and 272.4
same,"Normalised anisotropy (0 nM MN551 = 1, free probe = 0)",[1],1.011 and 0.9923 and 1.019
same,Anisotropy,[2],273.3 and 273 and 268.8
same,"Normalised anisotropy (0 nM MN551 = 1, free probe = 0)",[2],1.015 and 1.008 and 1.011
same,"Fb, fraction bound",MN551 67.7604 nM; Cycle 3 (10 min),1.012 and 1.015
same,"Fb, fraction bound",MN551 67.7604 nM; Cycle 4 (15 min),1.045 and 1.001 and 1.044
same,"Fb, fraction bound",MN551 67.7604 nM; Cycle 5 (20 min),1.021 and 1.01 and 1.035
same,"Anisotropy data 485,520,520",[3],255.5 and 268.5 and 268.1
same,Fb,[3],1.001 and 1.023 and 1.097
same,"Fb, fraction bound",[3],1.014 and 1.003 and 1.019
same,"Anisotropy data 485,520,520",[4],254 and 269.1 and 265.5
same,Fb,[4],1.003 and 1.031 and 1.1195
same,"Fb, fraction bound",[4],1.006 and 0.9878 and 1.026
same,Anisotropy,[5],280.6 and 277.8 and 278.8
same,"Anisotropy data 485,520,520",[5],254.8 and 266.5 and 267.2
same,Fb,[5],0.9713 and 1.02 and 1.131 and 1.039 and 0.9859 and 1.031
same,Anisotropy,[6],279.4 and 279.7 and 277.3
same,"Anisotropy data 485,520,520",[6],251.7 and 265.7 and 262.8
same,Fb,[6],0.9836 and 1.032 and 1.106 and 1.035 and 0.9991 and 1.012
same,Anisotropy,[7],280.9 and 277.5 and 274.3
same,"Anisotropy data 485,520,520",[7],251.5 and 263.4 and 263.1
same,Fb,[7],1 and 1.033 and 1.133 and 1.042 and 0.9889 and 0.9831
same,Anisotropy,[8],280.7 and 279.2 and 275.8
same,Fb,[8],1.049 and 1.022 and 1.0181
same,Anisotropy,MN551 67.7604 nM; Cycle 11 (50 min); n=1,249.8 and 261.8 and 263.5
same,Anisotropy,[9],248.6 and 262.7 and 264
same,Anisotropy based on Raw Data (485),[9],273 and 273.6 and 273.9
same,Anisotropy,[10],247.9 and 260.8 and 262.2
same,Anisotropy based on Raw Data (485),[10],273.9 and 272.8 and 272.7
same,Anisotropy,[11],247.1 and 259.2 and 261.7
same,Anisotropy based on Raw Data (485),[11],273.5 and 272.5 and 272.8
same,Anisotropy,[12],246.9 and 261.9 and 262.5
same,Anisotropy based on Raw Data (485),[12],271.6 and 270.3 and 270.9
same,Anisotropy,[13],245.6 and 261.2 and 260.3
same,Anisotropy based on Raw Data (485),[13],271.9 and 271.2 and 270.9
same,"Anisotropy data 485,520,520",MN551 67.7604 nM; Cycle 19 (90 min); n=1,274 and 272.9 and 268.5
same,"Anisotropy data 485,520,520",MN551 67.7604 nM; Cycle 20 (95 min); n=1,272.7 and 269.9 and 269.6
same,Fb,"MN551 94.8645 nM, Cycle 7 (30 min)",0.9103 and 0.9157 and 0.873
same,Anisotropy based on Raw Data (485),[14],275.2 and 275.4 and 274.8
same,Fb,[14],0.8995 and 0.8731 and 0.8819
same,Anisotropy based on Raw Data (485),[15],275.6 and 277.1 and 274.7
same,Fb,[15],0.8857 and 0.8982 and 0.8762
same,Anisotropy based on Raw Data (485),[16],274.4 and 274.2 and 271.6
same,Fb,[16],0.9025 and 0.8842 and 0.8777
same,Anisotropy based on Raw Data (485),[17],273 and 275.5 and 272.5
same,Fb,[17],0.925 and 0.8825 and 0.8722
same,Anisotropy,"MN551 94.8645 nM, Cycle 13 (60 min), n=1",276.5 and 273.8 and 270.9
same,Anisotropy,"MN551 94.8645 nM, Cycle 14 (65 min), n=1",274.8 and 273.8 and 270.2
same,Anisotropy,[18],273.5 and 273.9 and 267.6
same,"Normalised anisotropy (0 nM MN551 = 1, free probe = 0)",[18],0.9934 and 0.9442
same,Anisotropy,[19],272.4 and 271.7 and 268.1
same,"Normalised anisotropy (0 nM MN551 = 1, free probe = 0)",[19],0.9707 and 0.9884 and 0.9484
same,Anisotropy,[20],271.2 and 271.5 and 267.5
same,"Normalised anisotropy (0 nM MN551 = 1, free probe = 0)",[20],0.9846 and 0.9787 and 0.9707
same,Anisotropy,[21],271.6 and 271.8 and 267
same,"Normalised anisotropy (0 nM MN551 = 1, free probe = 0)",[21],0.999 and 0.9962 and 0.993
same,"Fb, fraction bound",MN551 94.8645 nM; Cycle 4 (15 min),1.024 and 0.9774 and 0.9924
same,"Fb, fraction bound",MN551 94.8645 nM; Cycle 5 (20 min),1.011 and 0.9897 and 0.9981
same,Fb,[22],0.9952 and 1.008 and 1.071
same,"Fb, fraction bound",[22],0.9991 and 0.9933 and 0.9706
same,"Anisotropy data 485,520,520",[23],273.3 and 268.2 and 263.5
same,Fb,[23],0.9824 and 1.012 and 1.067
same,"Fb, fraction bound",[23],0.9706 and 0.9925 and 0.98
same,Anisotropy,[24],281.8 and 278.2 and 273.8
same,"Anisotropy data 485,520,520",[24],272.9 and 263.9 and 265.9
same,Fb,[24],0.9646 and 1.009 and 1.086 and 1.05 and 0.9896 and 0.9825
same,Anisotropy,[25],275.8 and 276.6 and 273.4
same,"Anisotropy data 485,520,520",[25],271.2 and 265.1 and 264.1
same,Fb,[25],0.9797 and 1.047 and 1.078 and 1 and 0.9698 and 0.9739
same,Anisotropy,[26],278 and 276.1 and 270.9
same,"Anisotropy data 485,520,520",[26],269.5 and 261.1 and 262.4
same,Fb,[26],0.9923 and 1.012 and 1.075 and 1.014 and 0.9759 and 0.9511
same,Anisotropy,[27],277.4 and 274.4 and 270.1
same,Fb,[27],1.017 and 0.9764 and 0.9638
same,Anisotropy,MN551 94.8645 nM; Cycle 11 (50 min); n=1,271.8 and 262.9 and 260.9
same,Anisotropy,[28],269.6 and 262.3 and 258.8
same,Anisotropy based on Raw Data (485),[28],271.6 and 273.7 and 270.4
same,Anisotropy,[29],269.2 and 258.5 and 260.3
same,Anisotropy based on Raw Data (485),[29],272.8 and 273.5 and 270.6
